The text below walks through data of article PMC6414029, “Utilisation of the Prestwick Chemical Library to identify drugs that inhibit the growth of mycobacteria” (PLoS ONE, 2019).

This test relates to HepG2 cells. In words: HepG2 cytotoxicity assay (CellTitre-Glo). Format: cell-based. The settings on record: Homo sapiens, 48 hours. Here is the method:
Actively growing HepG2 cells were removed from a T-175 tissue culture flask with 5 mL of Eagle’s MEM containing 10% FBS/1%NEAA/1% Penicillin and Streptomycin) and mixed with gentle pipetting. […] The cell suspension was added to 250 mL of the same medium at a final density of […]. […] Plates were allowed to incubate at 37°C at a relative humidity of 80% and 5% CO2 for 48 hours. After incubation, the plates were allowed to equilibrate at room temperature for 30 mins before 25 μL of CellTitre-Glo (Promega) reagent was added to each well using a multichannel pipette. Plates were left at room temperature for 30 mins before relative luminescence was read using a BMG Labtech POLARstar Omega plate reader.

Counter-ions that a name gives are not always drawn.

`CCN(CC)CCOc1ccc(C(=C(Cl)c2ccccc2)c2ccccc2)cc1` [Clomiphene citrate]: it took 35 µM to reach half-maximal inhibition (IC50).
